Measurements reported in publication PMC8500839, “Structures of outer-arm dynein array on microtubule doublet reveal a motor coordination mechanism” (Nature Structural & Molecular Biology, 2021).
Results are given in words; binding and its absence hold for the method and conditions named. Some results given as binding are weak or reduced against the parent protein; the word gives no strength.

The chains behind the UniProt entries cited, without tags or fusion partners.
UniProt Q22A67: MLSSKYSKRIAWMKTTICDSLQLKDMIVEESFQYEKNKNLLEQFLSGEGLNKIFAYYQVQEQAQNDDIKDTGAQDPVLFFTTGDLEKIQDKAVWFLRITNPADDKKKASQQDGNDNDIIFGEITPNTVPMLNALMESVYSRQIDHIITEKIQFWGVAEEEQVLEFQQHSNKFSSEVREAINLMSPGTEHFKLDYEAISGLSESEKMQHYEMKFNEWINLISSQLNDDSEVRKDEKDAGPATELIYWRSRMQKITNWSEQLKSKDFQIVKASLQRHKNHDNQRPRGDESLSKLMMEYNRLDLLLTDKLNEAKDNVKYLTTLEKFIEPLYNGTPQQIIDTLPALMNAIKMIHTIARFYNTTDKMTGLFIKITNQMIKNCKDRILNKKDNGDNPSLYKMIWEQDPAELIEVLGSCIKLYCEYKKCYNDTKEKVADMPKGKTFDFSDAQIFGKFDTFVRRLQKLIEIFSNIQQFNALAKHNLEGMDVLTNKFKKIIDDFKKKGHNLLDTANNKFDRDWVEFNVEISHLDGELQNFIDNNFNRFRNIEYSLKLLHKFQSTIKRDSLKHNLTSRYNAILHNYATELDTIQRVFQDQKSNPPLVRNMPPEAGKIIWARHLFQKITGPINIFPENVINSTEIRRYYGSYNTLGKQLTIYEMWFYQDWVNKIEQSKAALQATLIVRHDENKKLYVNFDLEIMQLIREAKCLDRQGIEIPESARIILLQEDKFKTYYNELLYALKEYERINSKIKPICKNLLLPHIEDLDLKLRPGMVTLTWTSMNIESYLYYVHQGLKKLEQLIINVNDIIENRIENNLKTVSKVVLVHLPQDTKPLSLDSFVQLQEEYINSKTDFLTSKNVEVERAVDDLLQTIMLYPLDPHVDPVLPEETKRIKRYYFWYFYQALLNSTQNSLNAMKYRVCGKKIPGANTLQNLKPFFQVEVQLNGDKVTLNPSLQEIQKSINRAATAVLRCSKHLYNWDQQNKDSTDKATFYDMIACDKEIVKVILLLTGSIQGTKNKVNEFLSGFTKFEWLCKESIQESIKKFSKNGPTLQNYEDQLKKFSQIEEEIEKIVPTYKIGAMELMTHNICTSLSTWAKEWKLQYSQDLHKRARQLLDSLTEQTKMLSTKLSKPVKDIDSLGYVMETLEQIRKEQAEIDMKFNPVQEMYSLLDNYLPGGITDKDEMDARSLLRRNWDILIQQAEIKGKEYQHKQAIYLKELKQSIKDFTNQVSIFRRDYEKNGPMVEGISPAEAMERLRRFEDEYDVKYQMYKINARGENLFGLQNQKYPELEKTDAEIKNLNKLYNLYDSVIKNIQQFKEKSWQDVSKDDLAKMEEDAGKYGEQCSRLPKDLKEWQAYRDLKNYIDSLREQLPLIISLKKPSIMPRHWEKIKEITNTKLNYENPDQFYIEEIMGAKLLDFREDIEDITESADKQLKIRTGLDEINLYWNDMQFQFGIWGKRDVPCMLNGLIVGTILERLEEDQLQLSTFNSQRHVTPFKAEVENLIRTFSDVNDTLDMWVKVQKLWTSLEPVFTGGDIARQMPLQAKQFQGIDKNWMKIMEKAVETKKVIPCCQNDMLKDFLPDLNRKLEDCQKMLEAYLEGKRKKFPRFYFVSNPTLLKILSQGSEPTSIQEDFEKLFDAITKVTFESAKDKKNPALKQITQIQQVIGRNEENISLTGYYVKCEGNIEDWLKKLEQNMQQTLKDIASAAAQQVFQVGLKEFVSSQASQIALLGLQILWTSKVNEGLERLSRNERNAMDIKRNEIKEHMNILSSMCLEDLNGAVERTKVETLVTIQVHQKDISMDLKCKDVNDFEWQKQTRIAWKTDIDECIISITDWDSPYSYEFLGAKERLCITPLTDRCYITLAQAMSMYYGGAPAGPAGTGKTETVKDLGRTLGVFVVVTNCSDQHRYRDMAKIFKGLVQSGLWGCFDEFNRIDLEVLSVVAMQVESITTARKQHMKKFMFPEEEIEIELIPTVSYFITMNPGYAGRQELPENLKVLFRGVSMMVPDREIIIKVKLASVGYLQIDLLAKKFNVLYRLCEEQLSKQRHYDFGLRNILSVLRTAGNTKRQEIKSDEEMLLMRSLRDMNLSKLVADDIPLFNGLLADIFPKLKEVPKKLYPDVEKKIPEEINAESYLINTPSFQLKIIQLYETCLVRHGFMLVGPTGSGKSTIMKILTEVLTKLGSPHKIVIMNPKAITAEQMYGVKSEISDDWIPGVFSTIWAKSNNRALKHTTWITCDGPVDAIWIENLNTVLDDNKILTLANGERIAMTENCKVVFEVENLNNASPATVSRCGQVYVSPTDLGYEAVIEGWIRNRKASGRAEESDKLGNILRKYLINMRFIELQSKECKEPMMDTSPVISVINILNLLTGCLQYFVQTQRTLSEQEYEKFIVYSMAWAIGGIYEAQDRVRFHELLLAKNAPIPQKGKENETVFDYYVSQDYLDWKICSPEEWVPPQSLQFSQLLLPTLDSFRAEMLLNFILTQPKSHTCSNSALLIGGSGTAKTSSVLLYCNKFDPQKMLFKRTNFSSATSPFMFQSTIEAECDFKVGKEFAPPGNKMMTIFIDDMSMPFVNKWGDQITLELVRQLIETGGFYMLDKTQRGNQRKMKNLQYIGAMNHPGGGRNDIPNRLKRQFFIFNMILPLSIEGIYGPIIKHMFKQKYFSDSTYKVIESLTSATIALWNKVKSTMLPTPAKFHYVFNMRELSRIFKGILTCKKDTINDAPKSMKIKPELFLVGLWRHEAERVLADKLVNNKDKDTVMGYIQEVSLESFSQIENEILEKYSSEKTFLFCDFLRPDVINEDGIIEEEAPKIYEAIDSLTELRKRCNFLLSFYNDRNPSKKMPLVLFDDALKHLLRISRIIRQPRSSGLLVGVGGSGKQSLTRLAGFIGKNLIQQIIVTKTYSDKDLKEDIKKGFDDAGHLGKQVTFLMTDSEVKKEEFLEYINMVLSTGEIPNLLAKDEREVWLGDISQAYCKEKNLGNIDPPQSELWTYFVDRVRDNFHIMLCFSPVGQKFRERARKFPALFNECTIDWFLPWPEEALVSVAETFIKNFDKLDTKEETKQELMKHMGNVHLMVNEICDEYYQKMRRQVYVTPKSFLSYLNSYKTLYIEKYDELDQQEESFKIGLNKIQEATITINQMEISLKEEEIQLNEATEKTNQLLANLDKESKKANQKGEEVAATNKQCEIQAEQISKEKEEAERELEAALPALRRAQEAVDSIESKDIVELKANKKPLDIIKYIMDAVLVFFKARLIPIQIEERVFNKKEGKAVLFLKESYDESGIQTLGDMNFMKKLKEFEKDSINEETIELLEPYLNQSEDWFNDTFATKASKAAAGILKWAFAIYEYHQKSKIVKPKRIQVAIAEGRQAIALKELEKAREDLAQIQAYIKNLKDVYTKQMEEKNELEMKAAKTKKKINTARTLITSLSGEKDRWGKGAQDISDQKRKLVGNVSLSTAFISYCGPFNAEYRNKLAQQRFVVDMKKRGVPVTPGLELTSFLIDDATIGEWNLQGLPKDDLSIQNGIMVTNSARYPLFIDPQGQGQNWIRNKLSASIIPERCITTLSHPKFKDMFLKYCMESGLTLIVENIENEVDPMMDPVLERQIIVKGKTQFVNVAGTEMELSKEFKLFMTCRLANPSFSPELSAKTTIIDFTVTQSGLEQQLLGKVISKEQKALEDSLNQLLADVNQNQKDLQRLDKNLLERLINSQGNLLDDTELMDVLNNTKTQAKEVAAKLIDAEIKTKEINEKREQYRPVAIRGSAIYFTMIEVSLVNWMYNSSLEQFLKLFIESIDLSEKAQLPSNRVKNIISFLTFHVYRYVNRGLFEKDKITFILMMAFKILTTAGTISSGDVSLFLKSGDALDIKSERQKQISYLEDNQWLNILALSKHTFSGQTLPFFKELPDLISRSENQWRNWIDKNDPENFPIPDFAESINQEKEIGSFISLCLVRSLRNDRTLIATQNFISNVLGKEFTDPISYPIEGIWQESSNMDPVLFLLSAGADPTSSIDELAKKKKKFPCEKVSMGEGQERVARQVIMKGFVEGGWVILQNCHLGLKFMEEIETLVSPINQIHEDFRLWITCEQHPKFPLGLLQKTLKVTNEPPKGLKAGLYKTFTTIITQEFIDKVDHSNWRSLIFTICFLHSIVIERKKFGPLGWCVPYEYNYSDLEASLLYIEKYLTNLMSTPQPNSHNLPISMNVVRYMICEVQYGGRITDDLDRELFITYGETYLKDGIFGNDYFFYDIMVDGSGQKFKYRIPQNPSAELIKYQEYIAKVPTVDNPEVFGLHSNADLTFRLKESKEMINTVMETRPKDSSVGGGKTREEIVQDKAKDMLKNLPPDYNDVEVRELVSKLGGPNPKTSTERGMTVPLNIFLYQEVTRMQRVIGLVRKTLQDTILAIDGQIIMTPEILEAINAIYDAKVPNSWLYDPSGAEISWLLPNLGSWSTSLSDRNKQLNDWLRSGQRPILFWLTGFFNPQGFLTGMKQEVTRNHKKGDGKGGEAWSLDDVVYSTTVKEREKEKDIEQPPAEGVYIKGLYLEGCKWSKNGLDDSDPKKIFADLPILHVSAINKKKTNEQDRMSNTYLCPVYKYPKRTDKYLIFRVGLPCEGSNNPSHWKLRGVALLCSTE

What was measured:
Test in all cases: cryo-EM structure; freshly purified native OAD (not cross-linked) reconstituted on MTD in 20 mM HEPES pH 7.4, 100 mM KCl, 5 mM MgSO4, 1 mM DTT, on ice 45 min; apo state, no docking complex; two classes MTBS-1 and MTBS-2; MTD lattice refined from the same data; both purified
[1] = target: T1, outer-arm dynein intermediate chain IC3 (T. thermophila) (UniProt Q23FU1)
T1 sequence: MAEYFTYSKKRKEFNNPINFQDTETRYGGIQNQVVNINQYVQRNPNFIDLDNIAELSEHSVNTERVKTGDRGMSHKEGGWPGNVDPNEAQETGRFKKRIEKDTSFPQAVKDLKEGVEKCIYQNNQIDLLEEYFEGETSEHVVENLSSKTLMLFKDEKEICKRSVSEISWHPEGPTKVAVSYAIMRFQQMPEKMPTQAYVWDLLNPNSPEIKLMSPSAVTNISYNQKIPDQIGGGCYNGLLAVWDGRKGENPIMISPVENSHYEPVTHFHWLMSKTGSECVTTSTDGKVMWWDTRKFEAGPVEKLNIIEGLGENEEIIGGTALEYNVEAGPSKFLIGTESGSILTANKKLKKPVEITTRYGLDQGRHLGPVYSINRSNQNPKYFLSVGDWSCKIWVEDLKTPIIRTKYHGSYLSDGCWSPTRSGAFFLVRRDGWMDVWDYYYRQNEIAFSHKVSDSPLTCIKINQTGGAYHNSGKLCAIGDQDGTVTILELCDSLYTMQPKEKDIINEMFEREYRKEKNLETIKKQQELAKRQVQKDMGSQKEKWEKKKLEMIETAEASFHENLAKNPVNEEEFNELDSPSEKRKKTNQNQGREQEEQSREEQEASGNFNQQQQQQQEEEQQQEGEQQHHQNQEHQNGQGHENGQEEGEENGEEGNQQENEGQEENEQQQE

[2] = target: T2, LC8-3b (LC8 homolog TTHERM_000442909) (T. thermophila) (UniProt W7XJB1)
T2 sequence: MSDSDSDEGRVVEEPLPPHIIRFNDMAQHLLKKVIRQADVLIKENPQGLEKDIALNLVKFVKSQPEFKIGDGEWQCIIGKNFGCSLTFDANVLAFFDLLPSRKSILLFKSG

[3] = target: T3, outer-arm dynein intermediate chain IC2 (T. thermophila) (UniProt I7M008)
T3 sequence: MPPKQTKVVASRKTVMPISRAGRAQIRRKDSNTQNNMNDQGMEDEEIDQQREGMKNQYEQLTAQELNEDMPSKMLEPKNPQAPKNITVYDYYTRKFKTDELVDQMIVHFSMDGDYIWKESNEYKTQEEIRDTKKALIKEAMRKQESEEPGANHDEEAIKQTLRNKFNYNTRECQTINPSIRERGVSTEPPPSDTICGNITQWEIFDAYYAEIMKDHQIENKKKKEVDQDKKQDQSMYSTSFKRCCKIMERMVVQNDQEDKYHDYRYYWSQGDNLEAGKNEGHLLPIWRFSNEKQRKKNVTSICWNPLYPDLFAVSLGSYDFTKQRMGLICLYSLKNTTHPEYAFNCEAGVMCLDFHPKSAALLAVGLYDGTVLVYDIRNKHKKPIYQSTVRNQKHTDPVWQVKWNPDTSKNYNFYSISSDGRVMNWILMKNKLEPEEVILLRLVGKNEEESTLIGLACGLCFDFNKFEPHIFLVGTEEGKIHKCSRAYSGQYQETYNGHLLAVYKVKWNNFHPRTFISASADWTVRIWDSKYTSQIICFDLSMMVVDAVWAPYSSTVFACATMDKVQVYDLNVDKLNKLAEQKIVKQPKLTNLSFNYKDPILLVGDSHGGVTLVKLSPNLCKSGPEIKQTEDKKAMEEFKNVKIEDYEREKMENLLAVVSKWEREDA

[4] = target: outer-arm dynein α heavy chain (T. thermophila) (UniProt Q22A67)
[5] = target: T4, LC8-3a (LC8 homolog TTHERM_01079060) (T. thermophila) (UniProt Q24CE5)
T4 sequence: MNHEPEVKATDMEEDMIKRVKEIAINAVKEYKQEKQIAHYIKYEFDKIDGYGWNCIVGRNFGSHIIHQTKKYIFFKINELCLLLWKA

[6] = target: T5, LC8-2b (LC8 homolog TTHERM_00023950) (T. thermophila) (UniProt Q22R86)
T5 sequence: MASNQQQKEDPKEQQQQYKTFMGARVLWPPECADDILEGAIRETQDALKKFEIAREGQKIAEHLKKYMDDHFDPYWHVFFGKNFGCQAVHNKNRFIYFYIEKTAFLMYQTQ

[7] = target: T6, Tctex-b (LC2A) (T. thermophila) (UniProt C0HME8)
T6 sequence: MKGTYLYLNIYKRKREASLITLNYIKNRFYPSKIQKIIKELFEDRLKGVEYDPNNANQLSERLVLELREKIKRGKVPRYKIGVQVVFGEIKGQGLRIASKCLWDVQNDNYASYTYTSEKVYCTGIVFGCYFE

Measured: binding

B1: LC8-3a (LC8 homolog TTHERM_01079060) (protein, UniProt Q24CE5 1-87)
chain: MNHEPEVKATDMEEDMIKRVKEIAINAVKEYKQEKQIAHYIKYEFDKIDGYGWNCIVGRNFGSHIIHQTKKYIFFKINELCLLLWKA
binds: [1] | [2] | [3] | [4]

B2: LC8-3b (LC8 homolog TTHERM_000442909) (protein, UniProt W7XJB1 1-111)
chain: MSDSDSDEGRVVEEPLPPHIIRFNDMAQHLLKKVIRQADVLIKENPQGLEKDIALNLVKFVKSQPEFKIGDGEWQCIIGKNFGCSLTFDANVLAFFDLLPSRKSILLFKSG
binds: [1] | [3] | [4]

B3: Tctex-b (LC2A) (protein, UniProt C0HME8 1-132)
chain: MKGTYLYLNIYKRKREASLITLNYIKNRFYPSKIQKIIKELFEDRLKGVEYDPNNANQLSERLVLELREKIKRGKVPRYKIGVQVVFGEIKGQGLRIASKCLWDVQNDNYASYTYTSEKVYCTGIVFGCYFE
binds: [5] | [2] | [6] | [4]

B4: Tctex-a (hypothetical Tctex homolog TTHERM_00392979) (protein, UniProt A4VEB3 1-117)
chain: MGDTDKEYISEEVQKAIDDSVKQVFGIKDDSSQVTITYNKDKVNLWTQQIIDYTIRGLNKLGKHFKYCVTAILQQTNHAGISVQITAYQDTNTDGSLIQCYEINDIYAIVSVFAMAV
binds: all assays above

B5: outer-arm dynein intermediate chain IC2 (protein, UniProt I7M008 1-667)
chain: MPPKQTKVVASRKTVMPISRAGRAQIRRKDSNTQNNMNDQGMEDEEIDQQREGMKNQYEQLTAQELNEDMPSKMLEPKNPQAPKNITVYDYYTRKFKTDELVDQMIVHFSMDGDYIWKESNEYKTQEEIRDTKKALIKEAMRKQESEEPGANHDEEAIKQTLRNKFNYNTRECQTINPSIRERGVSTEPPPSDTICGNITQWEIFDAYYAEIMKDHQIENKKKKEVDQDKKQDQSMYSTSFKRCCKIMERMVVQNDQEDKYHDYRYYWSQGDNLEAGKNEGHLLPIWRFSNEKQRKKNVTSICWNPLYPDLFAVSLGSYDFTKQRMGLICLYSLKNTTHPEYAFNCEAGVMCLDFHPKSAALLAVGLYDGTVLVYDIRNKHKKPIYQSTVRNQKHTDPVWQVKWNPDTSKNYNFYSISSDGRVMNWILMKNKLEPEEVILLRLVGKNEEESTLIGLACGLCFDFNKFEPHIFLVGTEEGKIHKCSRAYSGQYQETYNGHLLAVYKVKWNNFHPRTFISASADWTVRIWDSKYTSQIICFDLSMMVVDAVWAPYSSTVFACATMDKVQVYDLNVDKLNKLAEQKIVKQPKLTNLSFNYKDPILLVGDSHGGVTLVKLSPNLCKSGPEIKQTEDKKAMEEFKNVKIEDYEREKMENLLAVVSKWEREDA
binds: [4]

B6: LC8-2b (LC8 homolog TTHERM_00023950) (protein, UniProt Q22R86 1-111)
chain: MASNQQQKEDPKEQQQQYKTFMGARVLWPPECADDILEGAIRETQDALKKFEIAREGQKIAEHLKKYMDDHFDPYWHVFFGKNFGCQAVHNKNRFIYFYIEKTAFLMYQTQ
binds: [1] | [3] | [4]

B7: outer-arm dynein intermediate chain IC3 (protein, UniProt Q23FU1 1-670)
chain: MAEYFTYSKKRKEFNNPINFQDTETRYGGIQNQVVNINQYVQRNPNFIDLDNIAELSEHSVNTERVKTGDRGMSHKEGGWPGNVDPNEAQETGRFKKRIEKDTSFPQAVKDLKEGVEKCIYQNNQIDLLEEYFEGETSEHVVENLSSKTLMLFKDEKEICKRSVSEISWHPEGPTKVAVSYAIMRFQQMPEKMPTQAYVWDLLNPNSPEIKLMSPSAVTNISYNQKIPDQIGGGCYNGLLAVWDGRKGENPIMISPVENSHYEPVTHFHWLMSKTGSECVTTSTDGKVMWWDTRKFEAGPVEKLNIIEGLGENEEIIGGTALEYNVEAGPSKFLIGTESGSILTANKKLKKPVEITTRYGLDQGRHLGPVYSINRSNQNPKYFLSVGDWSCKIWVEDLKTPIIRTKYHGSYLSDGCWSPTRSGAFFLVRRDGWMDVWDYYYRQNEIAFSHKVSDSPLTCIKINQTGGAYHNSGKLCAIGDQDGTVTILELCDSLYTMQPKEKDIINEMFEREYRKEKNLETIKKQQELAKRQVQKDMGSQKEKWEKKKLEMIETAEASFHENLAKNPVNEEEFNELDSPSEKRKKTNQNQGREQEEQSREEQEASGNFNQQQQQQQEEEQQQEGEQQHHQNQEHQNGQGHENGQEEGEENGEEGNQQENEGQEENEQQQE
binds: [4]

B8: LC7-a (unnamed LC7A homolog, TTHERM_00348650) (protein, UniProt Q22MV2 1-159)
chain: MIYKTSKEIQKSDQRIIQQRVENSIINNQIYQKSLKRKTSKRKVRHQANKKNFQKEMSEVEDTLNRIKTHKTVLGYLIVNSEGGVVRGAFKDEEESKNIANSIPLLTKKARSVVRDLDPTNDLVFLRIQTKLNEIMVAPDDEFSLIVIQTKGEKRDEND
binds: [1] | [3]
